Results as given in PubChem BioAssay AID662 (National Center for Advancing Translational Sciences (NCATS), 2007).
The list shows a part of the results. Further columns of the screen follow, without active or inactive calls. The list favours compounds with an active or inconclusive main result. The note in brackets gives the kind of curve behind each potency; many fits are weak.

Test: Cell signaling CRE-BLA (Fsk stim)
Conditions: CHO CRE-bla reporter (cAMP response element driving beta-lactamase), forskolin EC10, beta-lactamase ratio; measured here: 460 nm blue channel
Method in brief: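 Using CellSensor CRE-bla CHO cells in Opti-MEM with 0.5% dialyzed FBS, compounds were titrated with EC10 NKH 477 for 3 h at 37 °C. CCF4 ratio (460/530 nm) gave %Activity; AC50 derived.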

Row | Compound | AC50
1 | COc1cccc(NS(=O)(=O)c2ccc3[nH]cc(C(=O)NCCCOC(C)C)c(=O)c3c2)c1 | 0.126 µM [falling, full curve, poor fit]
2 | COc1ccc2nc3c(cc2c1)c(NC(=O)c1cccs1)nn3CC(C)C | 10 µM [rising, partial curve]
3 | CC(C)C1N(c2ccccc2)C(N)=C(C#N)C1(C#N)C#N (stereo not drawn) | 31.6 µM [falling, partial curve, poor fit]
4 | c1ccc(COc2nsnc2N2CCOCC2)cc1 | 10 µM [rising, single point]
5 | Cc1cc(=O)[nH]c2c(C)c(N)ccc12 | 25.1 µM [rising, single point]
6 | CCCCC(=O)NC1(C(F)(F)F)C(=O)N(Cc2ccco2)C(C)=C1C(=O)OC (stereo not drawn) | 0.00316 µM [falling, full curve, poor fit]
7 | O=c1oc2cc(O)ccc2c2c1CCCC2 | 25.1 µM [rising, single point]
8 | CCOC(=O)c1cnn2c(C(F)(F)F)cc(-c3ccco3)nc12 | 12.6 µM [rising, partial curve]
9 | O=C(CCSCCC(=O)NCCN1CCOCC1)NCCN1CCOCC1 | 0.01 µM [falling, full curve]
10 | OCCSc1nc(-c2cccnc2)nc2ccccc12 | 15.8 µM [rising, partial curve, poor fit]
11 | Cc1cccc2cc(CN(Cc3nnnn3Cc3ccco3)C3CCCC3)c3nnnn3c12 | 10 µM [rising, partial curve]
12 | CC(=O)NCCNc1nc(-c2cccc(NS(C)(=O)=O)c2)nc2ccccc12 | 10 µM [rising, partial curve]
13 | COc1cc2c(cc1OC)C1=C(C#N)CN(C3CCCCC3)CN1CC2 | 0.794 µM [rising, full curve]
14 | Cc1ccc(-c2c3c(=O)n(C)c(=O)n(C)c3c3c(C)cc(C)nn23)cc1 | 0.316 µM [falling, partial curve]
15 | COc1cc(CNc2ccc3c(c2)CCC3)cc(OC)c1O | 0.00316 µM [falling, full curve, poor fit]
16 | O=C(NC1CCCCC1)C(c1ccccc1F)N(Cc1ccco1)C(=O)Cn1nnc2ccccc21 (stereo not drawn) | 25.1 µM [rising, single point]
17 | COc1ccc(-c2nc3cnc(N(C)C)nc3n(C)c2=O)cc1 | 2.51 µM [rising, full curve]
18 | O=S(=O)(c1ccc(F)cc1)N1CCN(c2ncnc3c2cnn3-c2ccccc2)CC1 | 0.126 µM [falling, partial curve, poor fit]
19 | COCC(=O)N1CCC2(CCCN(c3ccc(-c4ccccc4)cc3)C2)CC1 | 12.6 µM [rising, single point]
20 | O=C(OCC(=O)N1CCCCCC1)c1n[nH]c(=O)c2ccccc12 | 0.1 µM [falling, single point]
21 | Cc1nc2ccccn2c1C(=O)c1ccccc1 | 2.51 µM [falling, partial curve]
22 | COc1ccccc1-c1cc(C(F)(F)F)nc(S(=O)(=O)CCCC(=O)N2CCCCC2C)n1 (stereo not drawn) | 12.6 µM [falling, partial curve]
23 | Cc1cc(C)n2nc(SCC(=O)c3cc(C)n(-c4cc(C)on4)c3C)nc2n1 | 12.6 µM [rising, partial curve]

In the list so far, 3 contain an NH in an aromatic ring:
Row | Compound | AC50
1 | COc1cccc(NS(=O)(=O)c2ccc3[nH]cc(C(=O)NCCCOC(C)C)c(=O)c3c2)c1 | 0.126 µM [falling, full curve, poor fit]
5 | Cc1cc(=O)[nH]c2c(C)c(N)ccc12 | 25.1 µM [rising, single point]
20 | O=C(OCC(=O)N1CCCCCC1)c1n[nH]c(=O)c2ccccc12 | 0.1 µM [falling, single point]

(continued)

Row | Compound | AC50
24 | O=C(Nc1cccc(Cl)c1)c1ccc2c(=O)n3c(nc2c1)CCCCC3 | 1.58 µM [rising, partial curve]
25 | Cc1cc(-c2ccccc2)n(-c2ccc(C(=O)N3CCN(c4ncccn4)CC3)cc2)n1 | 12.6 µM [rising, single point]
26 | CCC(=O)c1cc(F)c(N2CCN(S(=O)(=O)c3ccccc3)CC2)cc1C | 3.98 µM [falling, partial curve]
27 | O=C(O)c1cc(S(=O)(=O)N2CCCC2)ccc1Br | 1 µM [rising, single point]
28 | COc1ccc(Cn2c(C3CC3)nc3ccc(NC(C)=O)cc3c2=O)cc1 | 5.01 µM [rising, partial curve]
29 | CC1Cc2ccccc2N1C(=O)c1cc2c(=O)n3ccccc3nc2n1C (stereo not drawn) | 15.8 µM [rising, partial curve]
30 | COC(=O)[C@@]1(Cc2ccc(OC)cc2)[C@H]2c3cc(C(=O)N4CCCC4)n(CCF)c3C[C@H]2CN1C(=O)c1ccccc1 | 0.1 µM [rising, full curve]
31 | O=c1[nH]c2ccccc2c2ccccc12 | 25.1 µM [rising, partial curve]
32 | CCC1(CC)NC(=O)N(CC(=O)OCC(=O)Nc2cc(C)ccc2C)C1=O | 3.98 µM [falling, single point]
33 | CCS(=O)(=O)Nc1ccc(-c2ccc(NS(=O)(=O)CC)c(OC)c2)cc1OC | 12.6 µM [rising, partial curve]
34 | CC1=C/C(=C\c2ccc3c(c2)OCO3)C(=O)S1 | 0.1 µM [falling, full curve, poor fit]
35 | CC(=O)N1CCN(c2ccc(Oc3ncnc4sccc34)cc2)CC1 | 5.01 µM [falling, single point]
36 | COc1cc2c(cc1OC)CN(C(=O)CSc1nnc3scc(-c4ccccc4)n13)CC2 | 10 µM [rising, partial curve]
37 | CC1(C)CC(=O)C2=C(C1)OC(N)=C(C#N)C2c1ccccc1 (stereo not drawn) | 0.794 µM [falling, single point]
38 | Cc1cccc(OCc2nnc(SCc3cc(=O)n4cc(Br)ccc4n3)o2)c1 | 10 µM [rising, partial curve]
39 | C=C[C@H](N)CCC(=O)O | 31.6 µM [falling, single point]
40 | CCOC(=O)c1sc(NC(=O)c2c(C)nn(Cc3ccccc3)c2C)cc1C | 10 µM [falling, partial curve]
41 | CCc1c(C)c(C#N)c2nc3ccccc3n2c1N(C)C | 2.51 µM [rising, full curve]
42 | Cc1nonc1NC(=O)Nc1cccnc1 | 0.0126 µM [falling, full curve, poor fit]
43 | O=C(Nc1ccc(-c2noc(-c3cccs3)n2)cc1)c1cccnc1 | 20 µM [falling, single point]
44 | COC(=O)c1c(N)c2ccccc2[nH]c1=O | 25.1 µM [rising, single point]
45 | Cc1cc(C)cc(C(=O)N(C)[C@H](Cc2ccc(-c3ccccc3)cc2)C(=O)N[C@@H](Cc2c[nH]c3ccccc23)C(=O)O)c1 | 31.6 µM [falling, single point]
46 | CC1CCCC(C)N1C(=O)C1CC(c2ccc(F)cc2)=NO1 (stereo not drawn) | 0.0794 µM [falling, full curve]

Row | Compound | AC50
47 | COc1ccc(CCNC(=O)CSc2nnc(-c3ccccc3)o2)cc1OC | 0.501 µM [falling, single point]
48 | COc1ccc(N2CCN(C(=O)C(CCSC)N=C3NS(=O)(=O)c4ccccc43)CC2)cc1 (stereo not drawn) | 5.01 µM [falling, single point]
49 | CC1(C(=O)O)CCC(C(=O)N2CCOCC2)C1(C)C (stereo not drawn) | 0.126 µM [falling, single point]
50 | C=CCn1c(NC(=O)c2ccc(C)cc2)c(C#N)sc1=N | 25.1 µM [rising, single point]
51 | O=c1oc2ccccc2n1CSC1=NCCS1 | 10 µM [falling, single point]
52 | O=C1Nc2ccc(S(=O)(=O)N3CCOCC3)c3cccc1c23 | 12.6 µM [rising, single point]
53 | CCCCOC(=O)C1=C(C)Nc2ncnn2C1c1cccc(OC)c1 (stereo not drawn) | 10 µM [rising, partial curve]
54 | Cc1cc2ccccc2c(=O)n1CC(=O)NCC(=O)N1CCCC1 | 3.98 µM [falling, full curve]
55 | CCOC(=O)CC(=O)CSc1ccc2nnc(-c3ccc(F)cc3)n2n1 | 10 µM [rising, single point]
56 | Cc1ccccc1-c1ccc2ncnc(NC3CC3)c2c1 | 6.31 µM [rising, partial curve]
57 | COc1cccc(Cn2c(=O)c(-c3ccc(F)cc3)nc3cncnc32)c1 | 12.6 µM [rising, single point]
58 | CCC(C)NC(=O)CSc1nc2n[nH]c(C)c2c(=N)n1-c1ccc(OC)cc1 (stereo not drawn) | 10 µM [rising, single point]
59 | Cc1cc2c(N=O)c(NO)ccc2[nH]1 | 12.6 µM [falling, partial curve]
60 | CC(=O)Nc1cc(OC(C)=O)c2nonc2c1OC(C)=O | 6.31 µM [falling, partial curve]
61 | Cc1ccc(CCC(=O)Nc2nccs2)o1 | 0.00316 µM [falling, full curve, poor fit]
62 | Cc1cc(C(=O)OCn2nnc3ccccc3c2=O)c(C)n1-c1ccccc1 | 3.98 µM [rising, single point]
63 | CCOC(=O)Nc1ccc2ncn(C)c(=O)c2c1 | 12.6 µM [rising, single point]
64 | CCOc1ccccc1NC(=O)Cn1nnc(C(=O)Nc2ccc(C)cc2)c1N | 3.98 µM [rising, partial curve]
65 | CCOCCCNC(=O)c1cn(C)c(=O)c2cc(OC)c(OC)cc12 | 2 µM [rising, partial curve]
66 | Cn1c(SCC(=O)N2c3ccccc3Sc3ccc(Cl)cc32)nnc1-c1ccco1 | 10 µM [rising, single point]
67 | Cc1c(-c2ccc(F)cc2)nc(N)c(C#N)c1-c1ccco1 | 5.01 µM [rising, partial curve]
68 | COCCn1c(=O)c(-c2ccccc2)nc2cnc(Oc3ccccc3)nc21 | 15.8 µM [rising, single point]
